PubChem BioAssay AID1508597, Cure First | 2020

Assay: 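Knock-downs altering ovarian cancer cell survival with or without PARP inhibitor rucaparib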 (primary screen)
Cells: human ovarian carcinoma lines grown from tumours: OCI-P5x (papillary serous) and OCI-C5x (clear cell)
Reagents: siRNA pool against human genes, 1.25 pmol siRNA per well
Time to read-out: 72 h or 96 h, depending on the cell culture
Conditions: rucaparib 20 µM (about IC30) or vehicle, present until read-out
Rucaparib or vehicle: Rucaparib
Cell line: OCI-P5x (serous)
Measurement: 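Luminescent ATP-based viability assay read 72 or 96 h after transfection, depending on culture, given as normalised percent viability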
Scale: viability, normalised: higher = more viable cells remaining
Call rule: 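Active when normalised viability falls below 80 percent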
Meaning of the calls: active = viability under 80%; inactive = viability 80% or more
Shown is a random part of the about 2,100 reagents, in one setting of the screen. 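Calls flag viability under 80% in either arm, not effects specific to rucaparib; the reference for percent is not stated.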 Some reagents were tested in more than one well and are listed for each. Not given: the 100% reference.

gene,technical replicate,"viability, normalised (%)",Call
DMBT1 (GeneID 1755),1,52.5,active
DMBT1 (GeneID 1755),2,47,active
DMBT1 (GeneID 1755),3,59.4,active
MED10 (GeneID 84246),1,71.2,active
MED10 (GeneID 84246),2,69.8,active
MED10 (GeneID 84246),3,80.1,inactive
PPARGC1A (GeneID 10891),1,54.4,active
PPARGC1A (GeneID 10891),2,66.6,active
PPARGC1A (GeneID 10891),3,78.1,active
UNC93B1 (GeneID 81622),1,78.7,active
UNC93B1 (GeneID 81622),2,66.1,active
UNC93B1 (GeneID 81622),3,58.4,active
PRMT6 (GeneID 55170),1,48.7,active
PRMT6 (GeneID 55170),2,76.6,active
PRMT6 (GeneID 55170),3,67.9,active
RPS6KA6 (GeneID 27330),1,112,inactive
RPS6KA6 (GeneID 27330),2,96.3,inactive
RPS6KA6 (GeneID 27330),3,82.1,inactive
POLH (GeneID 5429),1,82,inactive
POLH (GeneID 5429),1,77.3,active
POLH (GeneID 5429),2,80.9,inactive
POLH (GeneID 5429),2,63.7,active
POLH (GeneID 5429),3,73,active
POLH (GeneID 5429),3,79.2,active
POLD4 (GeneID 57804),1,51.8,active
POLD4 (GeneID 57804),2,50.4,active
POLD4 (GeneID 57804),3,50.4,active
ZRANB3 (GeneID 84083),1,91.9,inactive
ZRANB3 (GeneID 84083),2,60.5,active
ZRANB3 (GeneID 84083),3,81.2,inactive

Part of the list above, reformatted:
| gene | technical replicate | viability, normalised (%) | Call |
| --- | --- | --- | --- |
| PPARGC1A (GeneID 10891) | 2 | 66.6 | active |
| PPARGC1A (GeneID 10891) | 3 | 78.1 | active |
| UNC93B1 (GeneID 81622) | 1 | 78.7 | active |
| UNC93B1 (GeneID 81622) | 2 | 66.1 | active |

Next results:
gene,technical replicate,"viability, normalised (%)",Call
WEE1 (GeneID 7465),1,30.4,active
WEE1 (GeneID 7465),1,72,active
WEE1 (GeneID 7465),2,29.4,active
WEE1 (GeneID 7465),2,71.5,active
WEE1 (GeneID 7465),3,30.8,active
WEE1 (GeneID 7465),3,51.7,active
FANCD2 (GeneID 2177),1,51.6,active
FANCD2 (GeneID 2177),1,60.3,active
FANCD2 (GeneID 2177),2,83.8,inactive
FANCD2 (GeneID 2177),2,62.8,active
FANCD2 (GeneID 2177),3,68.9,active
FANCD2 (GeneID 2177),3,65.4,active
MORC1 (GeneID 27136),1,49.2,active
MORC1 (GeneID 27136),2,50.5,active
MORC1 (GeneID 27136),3,57.8,active
DRD1 (GeneID 1812),1,59.4,active
DRD1 (GeneID 1812),2,68.4,active
DRD1 (GeneID 1812),3,65.2,active
CSNK2A1 (GeneID 1457),1,146,inactive
CSNK2A1 (GeneID 1457),1,59.2,active
CSNK2A1 (GeneID 1457),2,115,inactive
CSNK2A1 (GeneID 1457),2,70.5,active
CSNK2A1 (GeneID 1457),3,58.2,active
CSNK2A1 (GeneID 1457),3,124,inactive
NSD3 (GeneID 54904),1,36.4,active
NSD3 (GeneID 54904),2,38.9,active
NSD3 (GeneID 54904),3,32.8,active
